Patent publication US20250154110A1, “CLAUDIN INHIBITORS AND METHODS OF USE THEREOF” (The University of Chicago, priority 2021, published 2025)
Some entries share one result that the patent states for a list of compounds. At least one compound was matched to its structure with a doubt left.

The compounds below were run on Caco-2 BBe epithelial cell monolayers (assay: Transepithelial electrical resistance (TER) across Caco-2 BBe epithelial monolayers). Conditions: FIG. 17; Caco-2BBe monolayers, compared to vehicle; initial screening at 100 μM.
Assay type: cell-based

Compound	time by which maximal TER change is achieved [h]
CNC(=O)c1ccc(NC(=O)Nc2ccc(C3=NCCN3)cc2)cc1NC(=O)Nc1ccc(C2=NCCN2)cc1 [NSC 72574]	≤ 1
O=C(NCCCCCCCCCNC(=O)Nc1ccc(C2=NCCCN2)cc1)Nc1ccc(C2=NCCCN2)cc1 [NSC 76538]	≤ 1
Cl.O=C(Nc1ccc(C2=NCCN2)cc1)Nc1cccc(NC(=S)Nc2ccc(C3=NCCN3)cc2)c1 [NSC 64906]	≤ 1
Cl.O=C(Nc1ccc(NC(=O)Nc2cccc(C3=NCCCN3)c2)cc1)Nc1ccc(C2=NCCCN2)cc1 [NSC 75992]	≤ 1
CNC(=O)c1ccc(NC(=O)Nc2cccc(C3=NCCN3)c2)cc1NC(=O)Nc1cccc(C2=NCCN2)c1 [NSC 85195]	≤ 1

Each compound was assayed against T1, claudin-15 (Homo sapiens, UniProt P56746) (assay: TER across MDCK I monolayers induced to express claudin-15). Conditions: FIG. 18; MDCK I monolayers induced to express claudin-15, compared to vehicle; initial screening at 100 μM.
T1 construct: expressed in transfected cells; host or cells: Madin-Darby Canine Kidney (MDCK) I cells, doxycycline-induced expression
T1 sequence (P56746 1-228): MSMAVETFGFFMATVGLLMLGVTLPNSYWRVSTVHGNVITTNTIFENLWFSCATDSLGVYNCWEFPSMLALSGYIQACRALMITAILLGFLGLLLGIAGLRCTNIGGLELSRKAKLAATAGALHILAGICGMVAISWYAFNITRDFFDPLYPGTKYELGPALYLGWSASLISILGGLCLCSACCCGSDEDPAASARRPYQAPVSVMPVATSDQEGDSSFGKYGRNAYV
Assay type: cell-based
Text: Electrical measures are used to assess the flow of ions through the claudin channels. The most commonly used measurement in the tight junction field is transepithelial electrical resistance (TER). These assays can be performed using epithelial cells grown on permeable supports (in vitro) or using intact tissue from the GI tract mounted across apertures (ex vivo).
Two different Madin-Darby Canine Kidney (MDCK) I cell lines were used, which respectively express either claudin-2 or -15 when grown in the presence of doxycycline. These cells are useful in assessing the specificity of molecule effects on claudin-2 versus claudin-15. Caco-2 BBe epithelial cells, which normally express claudin-2 and some claudin-15, were also used to better understand the utility of these molecules in blocking claudins in the gastrointestinal (GI) tract. Caco-2 BBe and MDCK cells were grown on 0.33 cm^2 polycarbonate semi-permeable membranes with 0.4 μm pores (Corning Life Sciences, Corning, NY) and used 4 days (MDCK) or 3 weeks (Caco-2 BBe) after plating.
To measure TER, a two-electrode current clamp technique was used to measure TER across the layer of cells. This was done using a pair of recording electrodes (one on each side of the epithelial layer) to apply a steady transepithelial current step (ΔI) of 10 μA. A second pair of electrodes was used to measure the transepithelial voltage step (ΔV) needed to attain this current. Current and voltage were used to calculate TER using Ohm's law (ΔV=ΔI×TER). A higher TER means that there are fewer ions passing through the tight junction.
Electrode bridges were prepared using 1% agarose in Hank's balanced saline solution (HBSS), 135 mM NaCl, 0.3 mM Na2HPO4, 0.4 mM MgSO4, 0.5 mM MgCl2, 0.3 mM KH2PO4, 1.3 mM CaCl2), 10 mM HEPES, and 5 mM KOH, pH 7.4. Bridges were connected to calomel and Ag—AgCl electrodes and a current clamp (University of Iowa Bioengineering, Iowa City, IA). Experiments were performed at 37° C. with cells bathed in HBSS.
Molecules were solubilized in vehicle (dimethylsulfoxide (DMSO)) and applied to both sides of the epithelial monolayer after first measuring TER at t=0 (FIGS. 17 and 18). Final DMSO concentrations were <0.25%. Readings were performed for at least 3 hours after application to rule out epithelial cell injury, which would reduce TER. Initial screening was performed using 100 μM molecule concentration. […] Additional data showing the change in TER after 1 hour contact time for MDCK cells (induced to express either claudin-2 or -15) and Caco-2 BBe cells are set forth in the table in FIG. 19.
Follow up studies were also performed at lower concentrations for NSC 53299 (FIG. 20). Resistance measurements were normalized to values of resistance with vehicle but without test compound (vehicle).

Compound	time by which maximal TER change is achieved [h]
Cl.Nc1cc(C(=O)Nc2cccc(C3=NCCCN3)c2)ccc1C(=O)Nc1cccc(C2=NCCCN2)c1 [NSC 80117]	≤ 1
Cl.O=C(/C=C\c1ccc(C(=O)Nc2ccc(C3=NCCCN3)cc2)cc1)Nc1ccc(C2=NCCCN2)cc1 [NSC 80945]	≤ 1
CC1CN=C(c2ccc(NC(=O)c3ccc(C(=O)Nc4ccc(C5=NCC(C)N5)cc4)c(N)c3)cc2)N1 (stereo not drawn) [NSC 66761]	≤ 1
Cl.O=C(Nc1ccc(NC(=O)Nc2ccc(C3=NCCCN3)cc2)cc1)Nc1ccc(C2=NCCCN2)cc1 [NSC 60765]	≤ 1
